PubChem BioAssay AID1259308 | NCATS | 2017

Assay: 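Knock-downs that increase output of a recombinant reporter protein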 (primary screen)
Cell system: human HEK293 embryonic kidney cells stably expressing firefly luciferase (HEK-CMV-Luc2-Hygro)
Reagent: single siRNA against human genes, 0.8 pmol siRNA per well
Time to read-out: 72 h
Measurement: 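Reporter luminescence and viable-cell signal on separate replicate plates, given as percent of non-targeting control and median/MAD z-scores, plus per-cell luciferase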
Reading the numbers: total luciferase, z-score: higher = more reporter protein produced
Hit rule: 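An siRNA counts as active if its total luciferase robust z-score exceeds 3; genes with two or more such siRNAs out of three were retested with fresh siRNAs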
Meaning of the calls: active = raised luciferase; inactive = no rise
Here is an unselected part of about 59,000 deposited reagents. Over the whole deposit, about 1,510 (2.6%) are marked active. 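Calls use total luciferase alone and ignore viability, so some active siRNAs may act by altering cell number.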 Unmarked entries are inactive. Reagents against one gene are numbered here. Further read-outs or replicates are left out here.

For SPTBN1 (spectrin beta, non-erythrocytic 1) #1, what does the deposit list?
total luciferase, z-score: 0.474

What is on record for SPTBN1 (spectrin beta, non-erythrocytic 1) #2?
total luciferase, z-score: -0.132

What is on record for SPTBN1 (spectrin beta, non-erythrocytic 1) #3?
total luciferase, z-score: 1.75

For RBM11 (RNA binding motif protein 11) #1, what was measured?
total luciferase, z-score: -1.34

For RBM11 (RNA binding motif protein 11) #2, how do the results read?
total luciferase, z-score: 0.841

With RBM11 (RNA binding motif protein 11) #3, what was measured?
total luciferase, z-score: -1.4

With HOXA10 (homeobox A10) #1, what was measured?
total luciferase, z-score: 0.478

For HOXA10 (homeobox A10) #2, what was measured?
total luciferase, z-score: -0.0436

What is on record for HOXA10 (homeobox A10) #3?
total luciferase, z-score: -0.117

How did the screen score SMPD5 (sphingomyelin phosphodiesterase 5 (pseudogene)) #1?
total luciferase, z-score: -0.742

How did the screen score SMPD5 (sphingomyelin phosphodiesterase 5 (pseudogene)) #2?
total luciferase, z-score: -0.285

For SMPD5 (sphingomyelin phosphodiesterase 5 (pseudogene)) #3, what was measured?
total luciferase, z-score: -0.0915

Ordered by “total luciferase, z-score” (low to high): some entries from above.
HOXA10 (homeobox A10) #2 | total luciferase, z-score: -0.0436
HOXA10 (homeobox A10) #1 | total luciferase, z-score: 0.478

Further entries follow.
With OR4N5 (olfactory receptor family 4 subfamily N member 5) #1, how do the results read?
total luciferase, z-score: 1.3

What did the screen give for OR4N5 (olfactory receptor family 4 subfamily N member 5) #2?
total luciferase, z-score: 0.573

For OR4N5 (olfactory receptor family 4 subfamily N member 5) #3, what does the deposit list?
total luciferase, z-score: -0.232

What did the screen give for LGALS4 (galectin 4) #1?
total luciferase, z-score: -1.47

Which result is listed for LGALS4 (galectin 4) #2?
total luciferase, z-score: -1.14

With LGALS4 (galectin 4) #3, how do the results read?
total luciferase, z-score: -1.14

With SCGB2A1 (secretoglobin family 2A member 1) #1, how do the results read?
total luciferase, z-score: -1.13

For SCGB2A1 (secretoglobin family 2A member 1) #2, what was measured?
total luciferase, z-score: -0.11

What did the screen give for SCGB2A1 (secretoglobin family 2A member 1) #3?
total luciferase, z-score: 1.4
